Earlier results, collected in patent US20060063754A1, “Methods of treating a sleep disorder” (priority 2004, published 2006).
Some results were stated once for a whole list of compounds, not compound by compound.

Sequences of proteins named here, by UniProt entry; tags and fusion partners are left off.
UniProt P30546, whole entry: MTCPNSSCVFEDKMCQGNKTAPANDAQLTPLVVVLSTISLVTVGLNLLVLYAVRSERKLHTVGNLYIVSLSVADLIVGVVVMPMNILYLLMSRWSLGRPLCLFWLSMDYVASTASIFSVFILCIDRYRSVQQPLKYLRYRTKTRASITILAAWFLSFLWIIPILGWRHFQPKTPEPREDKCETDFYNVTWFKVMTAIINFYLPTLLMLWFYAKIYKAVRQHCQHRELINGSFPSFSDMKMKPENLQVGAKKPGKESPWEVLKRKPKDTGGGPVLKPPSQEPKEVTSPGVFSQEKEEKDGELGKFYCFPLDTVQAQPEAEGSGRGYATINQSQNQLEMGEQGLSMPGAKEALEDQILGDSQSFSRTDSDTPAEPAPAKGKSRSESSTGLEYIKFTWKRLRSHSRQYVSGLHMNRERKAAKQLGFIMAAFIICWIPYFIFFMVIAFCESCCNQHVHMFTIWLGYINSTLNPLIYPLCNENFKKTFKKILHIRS

Target: T1, H1 histamine receptor (Bos taurus, UniProt P30546)
T1 construct: the receptors were obtained from bovine cerebellar membrane tissue; from tissue; host or cells: bovine cerebellar membranes
Conditions: reference compounds; read-out: Ki of reference compounds in H1 binding assay (unit inferred); cited from earlier work

SMILES: CN(C)CCCSC(=N)N [dimaprit]
- Ki: > 10 µM
